Reference: PubChem BioAssay AID1053208 (Peter MacCallum Cancer Centre, 2014)
This is one part, drawn at random, of about 17,000 reagents tested. 788 of them (4.7%) count as active. 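Calls rest on z-score classes alone; an extra cut-off of viability at most 70% of control was not applied to them.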 Unmarked entries are inactive. Reagents against one gene are numbered here. Further read-outs or replicates are left out here.

- Test: 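Synthetic lethal interactions between gene loss and doxorubicin in osteosarcoma cells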 (primary screen)
- Cells: mouse osteosarcoma cells, early-passage culture from an engineered mouse model of fibroblastic bone tumour
- Reagents: siRNA pool against mouse genes, 40 nM
- Time to read-out: about 120 h (48 h before drug, then 72 h with drug)
- Treatment: doxorubicin 100 nM for 72 h, roughly 30-40% inhibitory dose
- Measurement: 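Viability read as ATP luminescence after 72 h of 100 nM doxorubicin or none, duplicate wells averaged, scaled to non-targeting siRNA, then expressed as robust z-scores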
- Direction: viability z-score with doxorubicin: higher = more viable cells under doxorubicin; viability z-score without drug: higher = more viable cells with knock-down alone
- Hit rule: 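Called active if knock-down leaves viability unchanged without drug (z within -2 to 2) but lowers it with doxorubicin (z at or under -2)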

{"gene knocked down": "Pramel4", "reagent no.": 1, "combined z-score class": "no change with or without drug", "viability z-score with doxorubicin": 0.22, "viability z-score without drug": -0.51}
{"gene knocked down": "Pramel4", "reagent no.": 2, "combined z-score class": "no change with or without drug", "viability z-score with doxorubicin": 0.34, "viability z-score without drug": 0.51}
{"gene knocked down": "Folr2", "reagent no.": 1, "combined z-score class": "no change with or without drug", "viability z-score with doxorubicin": 0.67, "viability z-score without drug": 0}
{"gene knocked down": "Samd11", "reagent no.": 1, "combined z-score class": "no change with or without drug", "viability z-score with doxorubicin": -1.57, "viability z-score without drug": -0.51}
{"gene knocked down": "Dspp", "reagent no.": 1, "combined z-score class": "no change with or without drug", "viability z-score with doxorubicin": -0.9, "viability z-score without drug": -0.17}
{"gene knocked down": "C730034F03Rik", "reagent no.": 1, "combined z-score class": "no change with or without drug", "viability z-score with doxorubicin": -0.67, "viability z-score without drug": 0.84}
{"gene knocked down": "Gm9758", "reagent no.": 1, "combined z-score class": "no change with or without drug", "viability z-score with doxorubicin": 0.45, "viability z-score without drug": 1.01}
{"gene knocked down": "Trappc3", "reagent no.": 1, "combined z-score class": "no change with or without drug", "viability z-score with doxorubicin": 0.45, "viability z-score without drug": 1.01}
{"gene knocked down": "Matcap2", "reagent no.": 1, "combined z-score class": "low cell count with doxorubicin only (active)", "viability z-score with doxorubicin": -2.02, "viability z-score without drug": -0.51}
{"gene knocked down": "Fndc9", "reagent no.": 1, "combined z-score class": "no change with or without drug", "viability z-score with doxorubicin": 1.35, "viability z-score without drug": -1.18}
{"gene knocked down": "Sox1", "reagent no.": 1, "combined z-score class": "high cell count with doxorubicin only", "viability z-score with doxorubicin": 2.36, "viability z-score without drug": 0.51}
{"gene knocked down": "Tecta", "reagent no.": 1, "combined z-score class": "no change with or without drug", "viability z-score with doxorubicin": -1.46, "viability z-score without drug": -0.17}
{"gene knocked down": "Cks1b", "reagent no.": 1, "combined z-score class": "no change with or without drug", "viability z-score with doxorubicin": 0.45, "viability z-score without drug": 1.18}
{"gene knocked down": "BC006965", "reagent no.": 1, "combined z-score class": "high cell count without drug only", "viability z-score with doxorubicin": 1.12, "viability z-score without drug": 2.87}
{"gene knocked down": "Umod", "reagent no.": 1, "combined z-score class": "no change with or without drug", "viability z-score with doxorubicin": -0.79, "viability z-score without drug": 0.51}
{"gene knocked down": "Eid2", "reagent no.": 1, "combined z-score class": "no change with or without drug", "viability z-score with doxorubicin": -1.8, "viability z-score without drug": 0.51}
{"gene knocked down": "T", "reagent no.": 1, "combined z-score class": "no change with or without drug", "viability z-score with doxorubicin": 1.91, "viability z-score without drug": 1.52}
{"gene knocked down": "Cul5", "reagent no.": 1, "combined z-score class": "no change with or without drug", "viability z-score with doxorubicin": 0.9, "viability z-score without drug": -0.17}
{"gene knocked down": "Ppfia4", "reagent no.": 1, "combined z-score class": "no change with or without drug", "viability z-score with doxorubicin": 0, "viability z-score without drug": 1.01}

2 of these entries in another layout:
gene knocked down,reagent no.,combined z-score class,viability z-score with doxorubicin,viability z-score without drug
C730034F03Rik,1,no change with or without drug,-0.67,0.84
Gm9758,1,no change with or without drug,0.45,1.01
